The other results are listed elsewhere or left out. Shown are side measurements of this screen, not its main read-out; they come without a call. The list favours compounds with an active or inconclusive main result. The note in brackets gives the kind of curve behind each potency; many fits are weak.
Assay: qHTS Assay to Find Inhibitors of Chronic Active B-Cell Receptor Signaling
Settings: ABC-DLBCL IkBa-CBG/CBR reporter, luminescence ratio (green luciferase fused to IkBa over red control in TMD8 lymphoma cells), 4 h
Outline: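 Concentration-response series (up to 46 uM) were applied to TMD8 dual-reporter cells for 4 h at 37C with doxycycline. Green/red ratio, after filter-overlap correction, defined %Activity; red signal alone was normalised to basal cells and zero luminescence.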

[1] = measured here: CBR red luminescence, cell number
[2] = measured here: IkBa-CBG green luminescence

Structure (SMILES) | AC50 [1] | AC50 [2]
Nc1ccccc1C(=O)OCCOc1ccccc1 | 14.6 µM [falling, single point] | –
CCCSC1=NN2CCCC(=O)N=C2S1 | 10 µM [rising, partial curve, poor fit] | –
C[C@]12CC[C@@H]3c4ccc(O)c(O)c4CC[C@H]3[C@@H]1CC[C@@H]2O | 35.5 µM [falling, single point] | –
Clc1ccc(C(Cn2ccnc2)OCc2csc3c(Cl)cccc23)c(Cl)c1 (centres undefined) | 20.6 µM [falling, partial curve] | –
COC(=O)C1=C(c2ccc(OC)c(OC)c2)C[C@@H]2CC[C@H]1N2C(=O)N1CCOCC1 | 2.31 µM [rising, full curve] | –
CCCCCCNc1nc(OC)nc(N2CC3CC(C2)c2cccc(=O)n2C3)n1 (centres undefined) | 0.1 µM [rising, full curve, poor fit] | –
Cn1c(O)c(/C=N/N2CCCCC2)c(=O)[nH]c1=O | 32.6 µM [falling, partial curve, poor fit] | –
CCCCn1c(O)c(C(=O)/C=C/c2ccc3c(c2)OCO3)c(=O)[nH]c1=O | 2.82 µM [falling, full curve] | –
CC(C)CCn1c(N)c(C(=O)OCC2CCCO2)c2nc3ccccc3nc21 (centres undefined) | 11.2 µM [falling, partial curve] | –
O=c1[nH]c(=O)n(-c2cccc3ccccc23)c(O)c1C=NCc1ccc2c(c1)OCO2 | 2.31 µM [falling, single point] | –
Cc1ccc(OC(F)F)c(N2C(=O)C3C4CCC(O4)C3C2=O)c1 (centres undefined) | 0.00461 µM [falling, full curve, poor fit] | –
COc1ccc(C(=O)C2CCCN(Cc3cnc(C)s3)C2)cc1OC (centres undefined) | 17.8 µM [rising, partial curve, poor fit] | –
CC1CCCCN1CC(=O)c1ccc2cc[nH]c2c1 (centres undefined) | 2.06 µM [falling, single point] | –
CC(=O)O[C@H]1C(=O)[C@@]2(C)C([C@H](OC(=O)c3ccccc3)[C@]3(O)C[C@H](O)C(C)=C1C3(C)C)[C@]1(OC(C)=O)CO[C@@H]1C[C@H]2O (some centres undefined) | 3.16 µM [falling, partial curve, poor fit] | –
CCC(=NCc1ccco1)c1c(O)n(C)c(=O)n(C)c1=O | 2.82 µM [falling, full curve] | –
COc1ccc(/C=N/N=C(/N)N[N+](=O)[O-])c(OC)c1 | 35.5 µM [falling, single point] | –
N#CC1=C(N)Oc2c(c(=O)oc3ccccc23)C1c1ccccc1OC(=O)c1cccs1 (centres undefined) | 0.517 µM [falling, full curve] | –
COc1ccc(CCNCc2ccccc2)cc1 | 0.708 µM [falling, full curve, poor fit] | –
COC(=O)C1=C(c2ccc(OC)c(OC)c2)C[C@@H]2CC[C@H]1N2C(=O)NC1Cc2ccccc2C1 | 2.91 µM [rising, partial curve, poor fit] | –

Sorted by SMILES length (falling): 3 of the compounds above.
Structure (SMILES) | AC50 [1] | AC50 [2]
COC(=O)C1=C(c2ccc(OC)c(OC)c2)C[C@@H]2CC[C@H]1N2C(=O)NC1Cc2ccccc2C1 | 2.91 µM [rising, partial curve, poor fit] | –
C[C@]12CC[C@@H]3c4ccc(O)c(O)c4CC[C@H]3[C@@H]1CC[C@@H]2O | 35.5 µM [falling, single point] | –
CC(C)CCn1c(N)c(C(=O)OCC2CCCO2)c2nc3ccccc3nc21 (centres undefined) | 11.2 µM [falling, partial curve] | –

The list goes on:

Structure (SMILES) | AC50 [1] | AC50 [2]
C[C@@H]1O[C@@H](O[C@@H]2C=C3CC[C@@H]4C(CC[C@]5(C)[C@@H](c6ccc(=O)oc6)CC[C@]45O)[C@@]3(C)CC2)[C@H](O)[C@H](O)[C@H]1O (some centres undefined) | 14.6 µM [falling, partial curve, poor fit] | –
O=C(NCCN1CCOCC1)c1ccc(Cl)nc1 | 3.98 µM [rising, full curve, poor fit] | –
Cc1ccsc1/C=N/N1CCN(Cc2ccccc2)CC1 | 3.55 µM [rising, single point] | –
CC(C)c1oc(=O)cc2c1[C@@H](O)[C@H]1OC(=O)[C@@]3(C)CC[C@@H](O)[C@@]2(C)C13 (some centres undefined) | 29.1 µM [falling, single point] | 2.91 µM [falling, partial curve, poor fit]
Cc1cccc(-n2c(O)c(/C=N/Nc3nc4c(c(=O)n(C)c(=O)n4C)n3C)c(=O)[nH]c2=S)c1 | 29.1 µM [falling, single point] | –
COC(=O)C1=C(c2cccc(OCc3ccccc3)c2)C[C@@H]2CC[C@H]1N2C(=O)NCCOc1ccc(OC)cc1 | 16.4 µM [falling, partial curve, poor fit] | –
O=c1c2ccccc2nc(/C=C/c2ccc(F)cc2)n1-c1ccccn1 | 5.62 µM [rising, single point] | –
O=c1c2ccccc2nc(-c2ccccc2)n1-c1ccncc1 | 29.1 µM [falling, single point] | –
COC(=O)CSc1nc2cc(OC)ccc2cc1C#N | 0.631 µM [rising, full curve] | –
CCC(=Nc1ccccc1NC(C)=O)c1c(O)n(C)c(=O)n(C)c1=O | – | 4.11 µM [rising, partial curve, poor fit]
CC(C)N1C(=S)SC(C)(C)C1n1oc(=O)n(-c2ccc(Cl)c(Cl)c2)c1=O (centres undefined) | 23.1 µM [falling, partial curve, poor fit] | –
CN(C)C(=O)O/N=C(\N)COc1ccc(C(C)(C)C)cc1 | 31.6 µM [rising, single point] | –
O=C1NC(=O)N(Cc2ccco2)C(=O)/C1=C/c1cccn1CCOc1ccccc1Cl | 20.6 µM [rising, single point] | –
COC(=O)C1=C(c2ccc(F)cc2OCc2ccccc2)C[C@@H]2CC[C@H]1N2C | 11.6 µM [falling, single point] | –
COC(=O)C1=C(c2cccc3c2S(=O)(=O)c2ccccc2-3)C[C@@H]2CC[C@H]1N2C(=O)N1CCc2cc(OC)c(OC)cc2C1 | 10.3 µM [rising, partial curve] | –
COc1cc(OC)cc(C(=O)Nc2ccc(Nc3ccccc3)cc2)c1 | 11.2 µM [falling, partial curve, poor fit] | –
Cc1cc(/C=C2\C(=O)NC(=O)N(c3cccc(F)c3)C2=O)c(C)n1-c1cc(C(=O)O)cc(C(=O)O)c1 | 22.4 µM [falling, single point] | –
O=Cc1cn(Cc2ccccc2F)c2ccccc12 | 0.562 µM [falling, partial curve, poor fit] | –
N#CC1(c2ccccc2)CCN(C2CC(=O)N(c3ccc(F)cc3)C2=O)CC1 (centres undefined) | 20 µM [rising, partial curve, poor fit] | –
